PubChem BioAssay AID720505 – Drosophila RNAi Screening Center, 2013
The screen tested about 20,000 reagents; this is an unselected part of those with a known target gene and a result. Over the whole deposit, about 2,100 (10%) are marked active. 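Raw plate signals without normalisation; calls rest on control-based scores that were not deposited; replicate 2 separates called from uncalled poorly.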 Entries without a mark were called inactive. A plus sign joins genes that one reagent is predicted to hit. Reagent sequences are not shown. The record does not give: the amount of reagent, the time to read-out.

Purpose: 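Genes needed for store-operated calcium entry in fly cells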 (primary screen)
Cell system: Drosophila S2R+ cells
Knock-down reagent: long dsRNA against Drosophila genes
Treatment: thapsigargin (2 µM) in calcium-free buffer to empty internal stores, then 2 mM calcium added back
Measurement: 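Fluo-4 signal in 384-well plates read on a FLIPR after thapsigargin (2 µM, calcium-free) store depletion and 2 mM calcium add-back; unnormalised mean endpoint per well; screen run twice, selected wells retested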
Direction: calcium signal and retest calcium signal: higher = more calcium entry after store depletion
Call rule: 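Knock-downs counted as hits when calcium entry dropped relative to STIM1 positive and Rho1 negative controls present on each plate; roughly 1500 genes called, with reductions of differing size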
Meaning of the calls: active = called as lowering calcium entry; inactive = not called

The opening 6 records as a preview:
| target | DRSC id | calcium signal, replicate 1 | calcium signal, replicate 2 | retest calcium signal, replicate 1 | retest calcium signal, replicate 2 |
| --- | --- | --- | --- | --- | --- |
| CenB1A (Centaurin beta 1A) | DRSC16923 | 208 | 165 | 112 | 91.7 |
| CG3165 | DRSC00573 | 116 | 240 | – | – |
| tbrd-2 | DRSC07020 | 89.8 | 83.7 | – | – |
| SmydA-7 (SET and MYND domain containing, arthropod-specific, member 7) | DRSC07340 | 70.6 (active) | 128 | – | – |
| Impbeta11 + asRNA:CR43429 | DRSC07525 | 135 | 170 | – | – |
| CG13813 | DRSC10068 | 62.1 (active) | 123 | – | – |

Results, from the first entry:
| target | DRSC id | calcium signal, replicate 1 | calcium signal, replicate 2 | retest calcium signal, replicate 1 | retest calcium signal, replicate 2 |
| --- | --- | --- | --- | --- | --- |
| CenB1A (Centaurin beta 1A) | DRSC16923 | 208 | 165 | 112 | 91.7 |
| CG3165 | DRSC00573 | 116 | 240 | – | – |
| tbrd-2 | DRSC07020 | 89.8 | 83.7 | – | – |
| SmydA-7 (SET and MYND domain containing, arthropod-specific, member 7) | DRSC07340 | 70.6 (active) | 128 | – | – |
| Impbeta11 + asRNA:CR43429 | DRSC07525 | 135 | 170 | – | – |
| CG13813 | DRSC10068 | 62.1 (active) | 123 | – | – |
| alien | DRSC03482 | 63.9 (active) | 70.4 | – | – |
| CG14229 | DRSC19585 | 77.7 | 103 | – | – |
| CG14229 | DRSC23149 | 96.8 | 114 | – | – |
| Mondo | DRSC02667 | 175 | 80.7 | – | – |
| Mondo | DRSC02668 | 66.5 | 197 | – | – |
| Mondo | DRSC22006 | 63.8 | 180 | – | – |
| Atg12 (Autophagy-related 12) | DRSC09803 | 43.7 (active) | 97.6 | – | – |
| Ant2 (Adenine nucleotide translocase 2) | DRSC19330 | 165 | 135 | – | – |
| Smr (Smrter) | DRSC19495 | 134 | 81.3 | – | – |
| Smr (Smrter) | DRSC20288 | 121 | 95 | – | – |
| Smr (Smrter) | DRSC22986 | 128 | 151 | – | – |
| ubl (ubiquitin like) | DRSC04998 | 109 | 87.9 | – | – |
| Nep4 (Neprilysin 4) | DRSC15539 | 123 | 223 | – | – |
| Dad | DRSC16642 | 178 | 180 | – | – |
| PKD (Protein Kinase D) | DRSC16200 | 144 | 129 | – | – |
| alpha-Est2 (alpha-Esterase-2) | DRSC12614 | 134 | 95.4 | – | – |
| CG15071 | DRSC06504 | 157 | 192 | – | – |
| RpS21 (Ribosomal protein S21) | DRSC00833 | 104 | 123 | – | – |
| CG8813 | DRSC00706 | 87.4 | 153 | – | – |
| nes (nessy) | DRSC11375 | 97.4 | 161 | – | – |
| Pal1 + Pdrg1 | DRSC06587 | 86.5 | 104 | – | – |
| S1P (Site-1 protease) | DRSC11810 | 114 | 204 | – | – |
| CG31817 | DRSC01537 | 188 | 85.8 | – | – |
| CG31817 | DRSC01538 | 209 | 92.4 | 6585 | 85.4 |
| CG31817 | DRSC22476 | 97.1 | 207 | – | – |
| CG17819 | DRSC15279 | 178 | 192 | – | – |
| CG10602 | DRSC02075 | 101 | 103 | – | – |
| fit (female-specific independent of transformer) | DRSC15280 | 285 | 181 | – | – |
| Gel (Gelsolin) | DRSC12350 | 112 | 92.5 | – | – |
| bma (black match) | DRSC09896 | 85.8 | 96.9 | – | – |
| bma (black match) | DRSC10164 | 113 | 128 | – | – |
| PH4alphaMP (prolyl-4-hydroxylase-alpha MP) | DRSC17031 | 143 | 147 | – | – |
| CG13796 + CG31904 | DRSC22161 | 89.6 | 197 | – | – |
| bon (bonus) | DRSC16914 | 197 | 150 | – | – |
| blanks | DRSC09757 | 89.4 | 50.9 | – | – |
| TfIIA-S-2 | DRSC17791 | 101 | 127 | – | – |
| Mur89F (Mucin related 89F) | DRSC15544 | 131 | 123 | – | – |
| unk (unkempt) | DRSC17093 | 201 | 291 | – | – |
| CG2961 | DRSC18246 | 67.7 (active) | 134 | – | – |
| mav (maverick) | DRSC17149 | 102 | 167 | – | – |
| Dso1 (Daisho1) | DRSC21815 | 165 | 96.6 | – | – |
| CG15279 | DRSC01935 | 115 | 126 | – | – |
| U4-U6-60K (U4-U6 small nuclear riboprotein factor 60K) | DRSC10624 | 124 | 68.8 | – | – |
| CG15145 | DRSC02446 | 106 | 139 | – | – |
| Rala (Ras-like protein A) | DRSC18703 | 125 | 93.1 | – | – |
| Eig71Ec (Ecdysone-induced gene 71Ec) | DRSC11150 | 97 | 130 | – | – |
| Cpsf6 (Cleavage and polyadenylation specific factor 6) | DRSC10781 | 51.6 (active) | 83.7 | – | – |
| Coq2 (Coenzyme Q biosynthesis protein 2) | DRSC16516 | 128 | 120 | – | – |
| Coq2 (Coenzyme Q biosynthesis protein 2) | DRSC21366 | 144 | 133 | – | – |
| CG7248 | DRSC10788 | 132 | 107 | – | – |
| CG42663 | DRSC06158 | 113 | 149 | – | – |
| CG42663 | DRSC06404 | 116 | 213 | 102 | 123 |
| Skp2 (S-phase kinase-associated protein 2) | DRSC12329 | 111 | 83 | – | – |
| CG8483 | DRSC16430 | 135 | 157 | – | – |
| wdb (widerborst) | DRSC14163 | 87 | 97.7 | – | – |
| Cadps (Calcium-dependent secretion activator) | DRSC21057 | 119 | 96.3 | – | – |
| Cadps (Calcium-dependent secretion activator) | DRSC22200 | 117 | 227 | – | – |
| CG4988 | DRSC02800 | 165 | 155 | – | – |
| CG3632 | DRSC19137 | 79.4 | 108 | – | – |
| CG3632 | DRSC19871 | 131 | 114 | – | – |
| Unc-115b + p24-2 + Unc-115a | DRSC16502 | 64.7 (active) | 87.9 | – | – |
| Mcm5 (Minichromosome maintenance 5) | DRSC16735 | 152 | 106 | – | – |
| Cpr65Ec (Cuticular protein 65Ec) | DRSC11025 | 110 | 90 | – | – |
| Act42A (Actin 42A) | DRSC04835 | 144 | 120 | – | – |
| CG11384 | DRSC18628 | 102 | 127 | – | – |
| fs(1)h (female sterile (1) homeotic) | DRSC18778 | 68.9 | 108 | 96.7 | 124 |
| CG44098 | DRSC12214 | 65.2 (active) | 116 | 113 | 119 |
| CG44098 | DRSC12240 | 90.1 | 92.2 | – | – |
| CG44098 | DRSC12327 | 84.7 | 128 | – | – |
| CG18636 | DRSC02685 | 82.8 | 114 | – | – |
| CG7407 | DRSC11824 | 119 | 116 | – | – |
| CG12576 | DRSC20621 | 118 | 103 | – | – |
| lncRNA:noe (long non-coding RNA:noe) | DRSC22747 | 127 | 193 | – | – |
| Tim17a2 | DRSC12252 | 102 | 156 | – | – |
| CG12164 | DRSC06115 | 158 | 86 | – | – |
| CG12164 | DRSC21777 | 134 | 92.6 | – | – |
| CG31156 | DRSC15753 | 147 | 170 | – | – |
| CG31156 | DRSC15755 | 118 | 88.1 | – | – |
